The exact form of at least one protein or probe is not confirmed. For some assays here: Where cells or extracts were used, other partners may take part. For some assays here: No signal at the amounts used counts as a negative.
Tests used:
hnRNPA2B1 (Homo sapiens) [1] = biological target: hnRNPA2B1 (Homo sapiens) (UniProt P22626); assay: EMSA; settings: 5 mM MgCl2, 40 mM KCl, tRNA; purified recombinant protein; protein details: purified human protein, Origene; label: biotin
hnRNPA2B1 (Homo sapiens) [2] = biological target: hnRNPA2B1 (Homo sapiens) (UniProt P22626); assay: binding assay; settings: UV crosslink RNP immunoprecipitation and qPCR; protein in an extract; protein details: endogenous, EV lysate of T cells

By UniProt entry, the sequences of proteins in these tests, tags left out. Where a name states a change or a piece, a line headed by the entry shows the natural chain unless it says otherwise.
UniProt P22626: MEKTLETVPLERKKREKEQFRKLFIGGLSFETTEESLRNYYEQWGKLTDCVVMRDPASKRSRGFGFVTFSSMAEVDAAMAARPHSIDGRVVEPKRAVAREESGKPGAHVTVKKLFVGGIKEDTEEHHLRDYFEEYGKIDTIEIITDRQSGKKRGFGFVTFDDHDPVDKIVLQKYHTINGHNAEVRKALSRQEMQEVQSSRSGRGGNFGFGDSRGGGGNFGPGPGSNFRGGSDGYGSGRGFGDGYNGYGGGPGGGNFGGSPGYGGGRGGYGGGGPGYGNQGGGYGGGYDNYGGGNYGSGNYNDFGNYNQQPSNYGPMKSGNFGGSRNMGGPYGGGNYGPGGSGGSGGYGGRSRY

Sequence	binding result (hnRNPA2B1 (Homo sapiens) [1])	binding result (hnRNPA2B1 (Homo sapiens) [2])
UGGUCUAGGAUUGUUGGAGGAG [miR-601]	binds	–
CAAAGUGCUUACAGUGCAGGUAG [miR-17 (endogenous)]	–	no binding

Reference: patent publication US20160130577
